The list shows a part of the results. Small differences around the control level are noise.

Sequences of proteins named here, by UniProt entry; tags and fusion partners are left off. A change or cut given only in a name is not applied to a line headed by its entry.
UniProt Q96JS3: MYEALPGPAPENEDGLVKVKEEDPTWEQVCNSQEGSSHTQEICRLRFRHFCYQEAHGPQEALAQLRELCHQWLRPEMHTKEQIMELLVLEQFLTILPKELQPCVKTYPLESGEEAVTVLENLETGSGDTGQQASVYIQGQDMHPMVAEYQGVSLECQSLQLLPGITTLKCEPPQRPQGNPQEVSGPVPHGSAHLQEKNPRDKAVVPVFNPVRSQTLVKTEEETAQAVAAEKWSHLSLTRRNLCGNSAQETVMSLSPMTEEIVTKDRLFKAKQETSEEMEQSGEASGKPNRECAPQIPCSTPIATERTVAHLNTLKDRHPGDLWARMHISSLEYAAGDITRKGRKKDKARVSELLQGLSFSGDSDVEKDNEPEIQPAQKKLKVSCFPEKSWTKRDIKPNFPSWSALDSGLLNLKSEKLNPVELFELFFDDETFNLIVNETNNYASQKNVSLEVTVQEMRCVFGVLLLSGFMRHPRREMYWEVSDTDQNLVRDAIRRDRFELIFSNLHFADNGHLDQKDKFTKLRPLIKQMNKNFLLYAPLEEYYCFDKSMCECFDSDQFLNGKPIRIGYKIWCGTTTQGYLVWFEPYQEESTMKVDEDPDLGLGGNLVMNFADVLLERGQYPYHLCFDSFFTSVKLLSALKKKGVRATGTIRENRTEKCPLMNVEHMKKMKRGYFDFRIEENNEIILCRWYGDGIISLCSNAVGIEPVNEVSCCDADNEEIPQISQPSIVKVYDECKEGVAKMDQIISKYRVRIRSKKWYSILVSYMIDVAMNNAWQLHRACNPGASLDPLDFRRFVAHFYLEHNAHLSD
UniProt Q96PC5: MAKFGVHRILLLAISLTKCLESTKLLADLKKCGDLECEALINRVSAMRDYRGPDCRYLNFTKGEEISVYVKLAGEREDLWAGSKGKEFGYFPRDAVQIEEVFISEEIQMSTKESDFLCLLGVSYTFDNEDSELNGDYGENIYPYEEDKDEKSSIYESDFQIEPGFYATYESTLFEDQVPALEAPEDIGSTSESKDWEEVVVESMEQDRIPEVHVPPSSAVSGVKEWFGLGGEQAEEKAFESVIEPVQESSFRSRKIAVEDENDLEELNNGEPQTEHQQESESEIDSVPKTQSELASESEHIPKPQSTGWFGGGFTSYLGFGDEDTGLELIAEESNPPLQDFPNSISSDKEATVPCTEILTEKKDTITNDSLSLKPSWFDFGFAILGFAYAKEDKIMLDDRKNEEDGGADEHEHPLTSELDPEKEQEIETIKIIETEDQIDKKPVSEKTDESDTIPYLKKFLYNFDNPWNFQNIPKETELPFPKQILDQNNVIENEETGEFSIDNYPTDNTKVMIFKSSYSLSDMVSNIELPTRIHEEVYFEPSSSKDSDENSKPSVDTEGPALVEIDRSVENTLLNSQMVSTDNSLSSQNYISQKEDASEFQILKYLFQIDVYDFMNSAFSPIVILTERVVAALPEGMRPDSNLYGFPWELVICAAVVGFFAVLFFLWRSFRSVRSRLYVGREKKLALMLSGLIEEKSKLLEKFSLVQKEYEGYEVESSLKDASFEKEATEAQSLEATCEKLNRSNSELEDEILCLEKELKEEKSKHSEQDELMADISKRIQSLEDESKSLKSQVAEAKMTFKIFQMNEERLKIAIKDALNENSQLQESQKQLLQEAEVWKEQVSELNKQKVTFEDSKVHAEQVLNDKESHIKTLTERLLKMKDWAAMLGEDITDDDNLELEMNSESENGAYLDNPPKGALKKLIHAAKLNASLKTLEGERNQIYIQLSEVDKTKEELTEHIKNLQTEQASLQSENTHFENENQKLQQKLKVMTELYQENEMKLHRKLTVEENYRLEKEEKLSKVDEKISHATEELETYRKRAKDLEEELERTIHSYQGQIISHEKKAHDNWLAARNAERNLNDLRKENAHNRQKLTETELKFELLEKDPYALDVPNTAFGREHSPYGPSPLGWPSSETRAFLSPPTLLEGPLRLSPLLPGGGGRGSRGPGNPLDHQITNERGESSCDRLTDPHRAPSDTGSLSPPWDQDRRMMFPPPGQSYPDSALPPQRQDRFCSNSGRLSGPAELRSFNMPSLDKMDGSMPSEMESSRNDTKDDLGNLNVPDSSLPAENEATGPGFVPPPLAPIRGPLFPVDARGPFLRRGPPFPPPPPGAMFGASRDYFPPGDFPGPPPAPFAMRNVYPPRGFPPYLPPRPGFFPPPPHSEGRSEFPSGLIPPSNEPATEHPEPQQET
UniProt Q96HY6: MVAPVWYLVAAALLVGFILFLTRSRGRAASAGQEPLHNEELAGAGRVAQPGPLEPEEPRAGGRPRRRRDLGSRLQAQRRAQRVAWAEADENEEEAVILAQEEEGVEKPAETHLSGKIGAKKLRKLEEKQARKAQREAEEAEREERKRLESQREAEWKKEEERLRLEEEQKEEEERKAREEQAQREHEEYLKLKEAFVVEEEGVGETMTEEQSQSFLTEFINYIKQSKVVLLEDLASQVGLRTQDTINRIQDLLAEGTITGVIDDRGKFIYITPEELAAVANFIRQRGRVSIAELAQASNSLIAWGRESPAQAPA
UniProt Q96J92: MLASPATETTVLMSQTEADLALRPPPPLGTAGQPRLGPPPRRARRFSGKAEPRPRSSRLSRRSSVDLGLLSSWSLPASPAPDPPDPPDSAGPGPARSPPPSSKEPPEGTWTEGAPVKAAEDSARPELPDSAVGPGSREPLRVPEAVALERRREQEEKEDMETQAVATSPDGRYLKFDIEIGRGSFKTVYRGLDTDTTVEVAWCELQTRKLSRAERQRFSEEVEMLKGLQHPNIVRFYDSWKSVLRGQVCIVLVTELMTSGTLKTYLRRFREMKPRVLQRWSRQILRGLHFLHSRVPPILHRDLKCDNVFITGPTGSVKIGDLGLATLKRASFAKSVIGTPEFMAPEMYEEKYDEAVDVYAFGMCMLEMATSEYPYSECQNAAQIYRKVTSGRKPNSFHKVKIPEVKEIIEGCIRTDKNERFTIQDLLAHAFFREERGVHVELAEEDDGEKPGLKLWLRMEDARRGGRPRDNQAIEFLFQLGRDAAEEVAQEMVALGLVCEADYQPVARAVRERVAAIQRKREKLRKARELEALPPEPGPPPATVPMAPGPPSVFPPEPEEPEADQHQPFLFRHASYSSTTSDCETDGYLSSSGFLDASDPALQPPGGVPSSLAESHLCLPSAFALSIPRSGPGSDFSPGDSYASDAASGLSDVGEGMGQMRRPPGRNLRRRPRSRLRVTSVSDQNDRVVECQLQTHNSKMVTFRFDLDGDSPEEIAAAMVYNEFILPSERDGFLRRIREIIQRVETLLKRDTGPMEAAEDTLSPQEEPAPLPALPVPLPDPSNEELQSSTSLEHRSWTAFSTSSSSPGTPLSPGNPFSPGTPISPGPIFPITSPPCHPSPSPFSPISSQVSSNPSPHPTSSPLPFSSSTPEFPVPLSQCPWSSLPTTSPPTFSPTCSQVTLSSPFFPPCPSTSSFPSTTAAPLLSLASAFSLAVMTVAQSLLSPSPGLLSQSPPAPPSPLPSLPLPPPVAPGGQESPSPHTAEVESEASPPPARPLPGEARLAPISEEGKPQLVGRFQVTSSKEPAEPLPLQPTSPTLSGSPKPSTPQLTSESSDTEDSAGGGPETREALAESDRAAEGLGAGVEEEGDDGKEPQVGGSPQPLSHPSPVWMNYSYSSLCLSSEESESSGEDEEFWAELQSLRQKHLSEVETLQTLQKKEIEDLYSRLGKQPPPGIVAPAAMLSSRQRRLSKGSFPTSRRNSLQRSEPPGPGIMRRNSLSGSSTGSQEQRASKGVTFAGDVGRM
UniProt Q96QR8: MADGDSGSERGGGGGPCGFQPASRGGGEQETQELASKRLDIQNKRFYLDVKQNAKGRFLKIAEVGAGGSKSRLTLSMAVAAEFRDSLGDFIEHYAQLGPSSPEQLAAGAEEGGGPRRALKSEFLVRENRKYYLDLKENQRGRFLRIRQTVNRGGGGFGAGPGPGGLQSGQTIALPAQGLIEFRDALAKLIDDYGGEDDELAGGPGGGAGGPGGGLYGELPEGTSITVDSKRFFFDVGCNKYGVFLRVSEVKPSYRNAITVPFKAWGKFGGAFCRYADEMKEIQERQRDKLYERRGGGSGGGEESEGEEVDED
UniProt Q96IK5: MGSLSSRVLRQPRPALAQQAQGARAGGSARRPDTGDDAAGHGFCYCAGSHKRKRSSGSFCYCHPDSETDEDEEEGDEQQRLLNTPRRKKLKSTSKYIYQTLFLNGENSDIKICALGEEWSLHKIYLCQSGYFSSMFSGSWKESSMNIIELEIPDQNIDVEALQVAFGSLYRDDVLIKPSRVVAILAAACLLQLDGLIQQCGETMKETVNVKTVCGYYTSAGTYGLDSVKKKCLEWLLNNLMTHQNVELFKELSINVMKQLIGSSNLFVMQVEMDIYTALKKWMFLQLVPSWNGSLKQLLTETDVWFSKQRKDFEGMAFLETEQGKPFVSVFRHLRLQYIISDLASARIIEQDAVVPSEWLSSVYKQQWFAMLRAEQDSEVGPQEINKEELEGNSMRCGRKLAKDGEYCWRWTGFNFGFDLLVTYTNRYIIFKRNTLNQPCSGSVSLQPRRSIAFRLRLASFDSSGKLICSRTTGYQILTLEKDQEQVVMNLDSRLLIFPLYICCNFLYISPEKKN
UniProt Q96JB3: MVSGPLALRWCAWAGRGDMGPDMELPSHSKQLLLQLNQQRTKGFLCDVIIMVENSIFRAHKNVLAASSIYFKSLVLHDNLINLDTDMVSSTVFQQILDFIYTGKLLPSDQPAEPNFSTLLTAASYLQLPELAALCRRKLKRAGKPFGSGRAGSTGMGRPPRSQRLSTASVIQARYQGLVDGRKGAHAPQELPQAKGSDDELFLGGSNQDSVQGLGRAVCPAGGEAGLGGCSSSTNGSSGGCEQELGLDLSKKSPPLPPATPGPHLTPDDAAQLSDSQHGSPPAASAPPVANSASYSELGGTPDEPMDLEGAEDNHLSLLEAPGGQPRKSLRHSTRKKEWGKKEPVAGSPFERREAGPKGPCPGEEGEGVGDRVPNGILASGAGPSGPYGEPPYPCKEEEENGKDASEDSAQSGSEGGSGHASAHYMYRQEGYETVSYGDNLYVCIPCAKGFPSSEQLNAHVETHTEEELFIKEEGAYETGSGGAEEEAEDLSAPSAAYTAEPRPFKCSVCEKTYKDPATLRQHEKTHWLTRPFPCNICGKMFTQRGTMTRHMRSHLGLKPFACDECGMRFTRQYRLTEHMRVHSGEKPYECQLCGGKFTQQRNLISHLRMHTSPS
UniProt Q96IR2: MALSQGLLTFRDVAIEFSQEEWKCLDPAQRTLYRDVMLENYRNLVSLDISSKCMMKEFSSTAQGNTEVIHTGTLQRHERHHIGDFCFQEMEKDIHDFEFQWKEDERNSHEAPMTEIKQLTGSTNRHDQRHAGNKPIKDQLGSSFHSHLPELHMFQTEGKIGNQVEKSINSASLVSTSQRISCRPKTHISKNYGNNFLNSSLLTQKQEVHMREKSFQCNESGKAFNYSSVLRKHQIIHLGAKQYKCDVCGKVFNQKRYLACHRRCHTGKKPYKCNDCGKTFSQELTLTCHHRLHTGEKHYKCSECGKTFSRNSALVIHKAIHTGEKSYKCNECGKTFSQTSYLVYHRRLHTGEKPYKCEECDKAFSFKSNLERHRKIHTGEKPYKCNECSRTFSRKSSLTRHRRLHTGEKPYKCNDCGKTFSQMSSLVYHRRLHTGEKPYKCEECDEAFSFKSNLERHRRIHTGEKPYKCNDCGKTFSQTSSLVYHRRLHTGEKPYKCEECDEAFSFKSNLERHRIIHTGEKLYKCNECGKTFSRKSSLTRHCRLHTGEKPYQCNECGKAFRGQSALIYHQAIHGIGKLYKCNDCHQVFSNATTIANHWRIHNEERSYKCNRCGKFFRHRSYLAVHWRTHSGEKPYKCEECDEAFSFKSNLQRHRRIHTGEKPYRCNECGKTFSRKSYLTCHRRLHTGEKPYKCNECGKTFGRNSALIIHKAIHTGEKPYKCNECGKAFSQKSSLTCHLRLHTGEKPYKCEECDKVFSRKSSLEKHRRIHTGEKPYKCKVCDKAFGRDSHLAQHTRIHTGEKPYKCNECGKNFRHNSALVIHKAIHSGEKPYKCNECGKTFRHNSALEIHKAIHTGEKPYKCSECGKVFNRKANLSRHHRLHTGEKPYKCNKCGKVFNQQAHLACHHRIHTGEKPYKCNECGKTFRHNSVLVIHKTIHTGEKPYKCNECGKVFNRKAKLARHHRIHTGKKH

Compound in the test: CN[C@@H]1C[C@H]2O[C@@](C)([C@@H]1OC)n1c3ccccc3c3c4c(c5c6ccccc6n2c5c31)C(=O)NC4 [staurosporine]
Nature of the test: log2 fold change of tryptic peptide abundance, ligand vs vehicle (limited proteolysis) (log2 ratio); higher = more trypsin-susceptible (destabilized). Particulars: ligand concentration: 20 uM; sample: K562 cleared lysate; digestion: 4 min, 22 C (HT-PELSA RT4min, Orbitrap Astral).
Take “UniProt Q96JS3 (peptide sequence: TVAHLNTLK, peptide start residue: 307)”: the log2 fold change was 0.466. With “UniProt Q96PC5 (peptide sequence: VHAEQVLNDKESHIK, peptide start residue: 859)” the figure was -0.245; with “DDRGK1 (peptide sequence: EHEEYLK, peptide start residue: 185) (UniProt Q96HY6)”, 0.555. The result for “WNK4 (peptide sequence: LGKQPPPGIVAPAAMLSSR, peptide start residue: 1167) (UniProt Q96J92)” reads 0.436. On to “DOCK7 (peptide sequence: DSNPVDKCK, peptide start residue: 1895) (UniProt Q96N67)”, for which the log2 fold change is -0.157. As to “PURB (peptide sequence: IAEVGAGGSK, peptide start residue: 61) (UniProt Q96QR8)”, the log2 fold change was found to be 0.0715. As to “UniProt Q96IK5 (peptide sequence: PALAQQAQGAR, peptide start residue: 14)”, the log2 fold change came out at 0.249. For the target “HIC2 (peptide sequence: EWGKKEPVAGSPFER, peptide start residue: 338) (UniProt Q96JB3)”, the log2 fold change was -0.156. With “ZNF845 (peptide sequence: NSHEAPMTEIK, peptide start residue: 107) (UniProt Q96IR2)” the figure was 0.217.

These data come from the supplement of paper PMC12819154, “High-throughput peptide-centric local stability assay extends protein–ligand identification to membrane proteins, tissues and bacteria” (Nature Structural & Molecular Biology, 2025).
